Test results reported in US20100092526A1, “NANOEMULSION THERAPEUTIC COMPOSITIONS AND METHODS OF USING THE SAME” (NanoBio Corporation, priority 2008, published 2010).
For at least one compound, name, drawing or mass did not settle the structure.

What was measured:
Assay type in all cases: cell-based
[1] = system: Acinetobacter baumannii; test: MIC/MBC of nanoemulsions against gram-negative isolates (CLSI, alamar blue); conditions: Acinetobacter baumannii (n = 5); nanoemulsions in the presence of 5 mM EDTA
[2] = system: Stenotrophomonas maltophilia; test: as above; conditions: Stenotrophomonas maltophilia (n = 5); nanoemulsions in the presence of 5 mM EDTA
[3] = system: Escherichia coli; test: as above; conditions: Escherichia coli (n = 5); nanoemulsions in the presence of 5 mM EDTA
[4] = system: Pseudomonas aeruginosa; test: as above; conditions: Pseudomonas aeruginosa (n = 5); nanoemulsions in the presence of 5 mM EDTA
[5] = system: Haemophilus influenzae; test: Susceptibility (MIC/MBC) of H. influenzae clinical isolates

Row | Compound | MIC Range [1] | MIC Range [2] | MIC Range [3] | MIC Range [4] | susceptibility of the majority of isolates by MIC90 values [5]
1 | C[C@@H](O)[C@H]1C(=O)N2C(C(=O)O)=C(SCCN=CN)C[C@H]12 [Imipenem] | <=0.12->8 ^ | 4->8 |  |  | 
2 | C[C@H]1COc2c(N3CCN(C)CC3)c(F)cc3c(=O)c(C(=O)O)cn1c23 [Levofloxacin] | 0.06->8 |  | 0.03->8 |  | 
3 | CN(C)[C@@H]1C(O)=C(C(N)=O)C(=O)[C@@]2(O)C(O)=C3C(=O)c4c(O)cccc4[C@@](C)(O)[C@H]3C[C@@H]12 [Tetracycline] | <=2->8 | <=2->8 | 4->8 | 8->8 | susceptible
4 | CCC[C@@H]1C[C@@H](C(=O)N[C@@H]([C@H]2O[C@H](SC)[C@H](O)[C@@H](O)[C@H]2O)[C@H](C)Cl)N(C)C1 [clindamycin] |  |  |  |  | resistant
